Results as given in patent US11433099B2, “Immunotherapy with B*08 restricted peptides and combination of peptides against cancers and related methods” (Immatics Biotechnologies GmbH, priority 2018, dated 2022).

Columns and labels:
[1] = system: source genes (mRNA) in tumor and normal tissue samples; assay: Expression profiling (RNASeq) of genes encoding the peptides; design: species or system human; conditions: RNASeq, tumors vs panel of normal tissues, value = tumor entities in this class
[2] = system: HLA peptide pools from tumor and normal tissue samples; assay: Identification and relative LC-MS quantitation of HLA-presented tumor associated peptides (presentation profiles); design: species or system human; conditions: cancer entities on which the peptide was found presented (Table 8A); value = entity abbreviations

Substance	Gene Expression in tumor samples: Highly over-expressed (++) [1]	Peptide Presentation on cancer entities [2]	Gene Expression in tumor samples: over-expressed (+) [1]	Gene Expression in tumor samples: very highly over-expressed (+++) [1]
47: peptide found in PTPRZ1 (gene looked up) (HSRVKLAQL; listed as Homo sapiens) [compound 47]	GBM	GBM		
134: peptide found in APOB (gene looked up) (DQRSRATL; listed as Homo sapiens) [compound 134]	HCC	HCC		
63: peptide found in LPAR3 (gene looked up) (YVKRKTNVL; listed as Homo sapiens) [compound 63]		HNSCC	HNSCC, OC, OSCAR, PRCA	
142: peptide found in SUCNR1 (gene looked up) (YNLIYSMCL; listed as Homo sapiens) [compound 142]	CCC	NSCLCadeno	AML	
168: peptide found in ABCC4 (gene looked up) (HVQDFTAF; listed as Homo sapiens) [compound 168]		NSCLCsquam	PRCA	
28: peptide found in LOXL4 (gene looked up) (DPKSRLKSL; listed as Homo sapiens) [compound 28]	MEL	MEL		
229: peptide found in SLC12A2 (gene looked up) (DTHTNTYYL; listed as Homo sapiens) [compound 229]		HNSCC	CRC	
102: peptide found in IGF2BP3 (gene looked up) (IMKKIRESY; listed as Homo sapiens) [compound 102]		MEL, NSCLCadeno, NSCLCsquam	AML, NSCLCother, UEC	
187: peptide found in LPAR4 (gene looked up) (VPYNSVLF; listed as Homo sapiens) [compound 187]		MEL	AML, GBM	
153: peptide found in GPR143 (gene looked up) (HAIPHYVTM; listed as Homo sapiens) [compound 153]	MEL	MEL		
149: peptide found in PTPRZ1 (gene looked up) (TQKSVQVL; listed as Homo sapiens) [compound 149]	GBM	GBM		
9: peptide found in PGR (gene looked up) (LLKGKPRAL; listed as Homo sapiens) [compound 9]	UEC	UEC	BRCA	
55: peptide found in CXCR3 (gene looked up) (VLLSRRTAL; listed as Homo sapiens) [compound 55]		CLL, MEL, NSCLCadeno, UBC, UEC	CLL	
40: peptide found in APOB (gene looked up) (ESMLKTTL; listed as Homo sapiens) [compound 40]	HCC	CCC, HCC		
79: peptide found in CDK6 (gene looked up) (GLARIYSF; listed as Homo sapiens) [compound 79]		CCC	AML	
137: peptide found in ROS1 (gene looked up) (VQWKPPAL; listed as Homo sapiens) [compound 137]	NSCLCadeno, NSCLCother	NSCLCadeno	NSCLCsquam	
182: peptide found in HTR1F (gene looked up) (ILHLSAIAL; listed as Homo sapiens) [compound 182]		BRCA	AML	
139: peptide found in NPFFR2 (gene looked up) (YGRIGISLF; listed as Homo sapiens) [compound 139]	HCC	HNSCC, NSCLCadeno	GBC	
98: peptide found in CHRNA9 (gene looked up) (EPVNTNVVL; listed as Homo sapiens) [compound 98]	GBM, SCLC	NSCLCother	HNSCC	NSCLCother

For some assays here: For expression read-outs the peptide stands for its source gene, whose mRNA was measured; the gene is not named for every peptide.
